No constants are given. Whether binding was seen depends on the method and setting. Some results given as binding are weak or reduced against the parent protein; the word gives no strength.
B1: ADI-10177 Fab (Fab, V domains shown)
VH: EVQLVESGGGLVQPGGSLRLSCAASGFTFSSYWMSWVRQAPGKGLEWVANIKQDGSEKYYVDSVKGRFTISRDNAKNSLYLQMNSLRAEDTAVYYCARPLNAGELDVWGQGTMVTVSS
VL: DIQMTQSPSTLSASVGDRVTITCRASQSISSWLAWYQQKPGKAPKLLIYEASSLESGVPSRFSGSGSGTEFTLTISSLQPDDFATYYCQQLESYPLTFGGGTKVEIK
B2: A40.I07 (bispecific antibody)
NKG2D-binding arm, heavy chain variable domain: QVQLQQWGAGLLKPSETLSLTCAVYGGSFSGYYWSWIRQPPGKGLEWIGEIDHSGSTNYNPSLKSRVTISVDTSKNQFSLKLSSVTAADTAVYYCARARGPWSFDPWGQGTLVTVSS
NKG2D-binding arm, light chain variable domain: DIQMTQSPSTLSASVGDRVTITCRASQSIGSWLAWYQQKPGKAPKLLIYKASSLESGVPSRFSGSGSGTEFTLTISSLQPDDFATYYCQQYHSFYTFGGGTKVEIK
CD33-binding arm, heavy chain variable domain: EVQLVESGGGLVQPGGSLRLSCAASGFTFGSYWMSWVRQAPGKGLEWVATIKQDGSEKSYVDSVKGRFTISRDNAKNSLYLQMNSLRAEDTAVYYCARPLNAGELDVWGQGTMVTVSS
CD33-binding arm, light chain variable domain: DIQMTQSPSTLSASVGDRVTITCRASQSISSWLAWYQQKPGKAPKLLIYEASSLESGVPSRFSGSGSGTEFTLTISSLQPDDFATYYCQQSQSYPPITFGGGTKVEIK
B3: A49.G59 (bispecific antibody)
NKG2D-binding arm, heavy chain variable domain: EVQLVESGGGLVKPGGSLRLSCAASGFTFSSYSMNWVRQAPGKGLEWVSSISSSSSYIYYADSVKGRFTISRDNAKNSLYLQMNSLRAEDTAVYYCARGAPMGAAAGWFDPWGQGTLVTVSS
NKG2D-binding arm, light chain variable domain: DIQMTQSPSSVSASVGDRVTITCRASQGISSWLAWYQQKPGKAPKLLIYAASSLQSGVPSRFSGSGSGTDFTLTISSLQPEDFATYYCQQGVSFPRTFGGGTKVEIK
CD33-binding arm, heavy chain variable domain: EVQLVESGGGLVQPGGSLRLSCAASGFTFSSYGMSWVRQAPGKGLEWVANIKQDGSEKYYVDSVKGRFTISRDNAKNSLYLQMNSLRAEDTAVYYCAREGGPYYDSSGYFVYYGMDVWGQGTTVTVSS
CD33-binding arm, light chain variable domain: DIQMTQSPSTLSASVGDRVTITCRASQSISSWLAWYQQKPGKAPKLLIYDASSLESGVPSRFSGSGSGTEFTLTISSLQPDDFATYYCQQYESFPTFGGGTKVEIK
B4: A49.H76 (bispecific antibody)
NKG2D-binding arm, heavy chain variable domain: EVQLVESGGGLVKPGGSLRLSCAASGFTFSSYSMNWVRQAPGKGLEWVSSISSSSSYIYYADSVKGRFTISRDNAKNSLYLQMNSLRAEDTAVYYCARGAPMGAAAGWFDPWGQGTLVTVSS
NKG2D-binding arm, light chain variable domain: DIQMTQSPSSVSASVGDRVTITCRASQGISSWLAWYQQKPGKAPKLLIYAASSLQSGVPSRFSGSGSGTDFTLTISSLQPEDFATYYCQQGVSFPRTFGGGTKVEIK
CD33-binding arm, heavy chain variable domain: EVQLLESGGGLVQPGGSLRLSCAASGFTFSKYTMSWVRQAPGKGLEWVSAIVGSGESTYFADSVKGRFTISRDNSKNTLYLQMNSLRAEDTAVYYCAREGGPYYDSSGYFVYYGMDVWGQGTTVTVSS
CD33-binding arm, light chain variable domain: DIQMTQSPSTLSASVGDRVTITCRASQSISSWLAWYQQKPGKAPKLLIYKASSLESGVPSRFSGSGSGTEFTLTISSLQPDDFATYYCQQYDDLPTFGGGTKVEIK
B5: A49.I07 (bispecific antibody)
NKG2D-binding arm, heavy chain variable domain: EVQLVESGGGLVKPGGSLRLSCAASGFTFSSYSMNWVRQAPGKGLEWVSSISSSSSYIYYADSVKGRFTISRDNAKNSLYLQMNSLRAEDTAVYYCARGAPMGAAAGWFDPWGQGTLVTVSS
NKG2D-binding arm, light chain variable domain: DIQMTQSPSSVSASVGDRVTITCRASQGISSWLAWYQQKPGKAPKLLIYAASSLQSGVPSRFSGSGSGTDFTLTISSLQPEDFATYYCQQGVSFPRTFGGGTKVEIK
CD33-binding arm, heavy chain variable domain: EVQLVESGGGLVQPGGSLRLSCAASGFTFGSYWMSWVRQAPGKGLEWVATIKQDGSEKSYVDSVKGRFTISRDNAKNSLYLQMNSLRAEDTAVYYCARPLNAGELDVWGQGTMVTVSS
CD33-binding arm, light chain variable domain: DIQMTQSPSTLSASVGDRVTITCRASQSISSWLAWYQQKPGKAPKLLIYEASSLESGVPSRFSGSGSGTEFTLTISSLQPDDFATYYCQQSQSYPPITFGGGTKVEIK
B6: C26.G59 (bispecific antibody)
NKG2D-binding arm, heavy chain variable domain: QVQLQQWGAGLLKPSETLSLTCAVYGGSFSGYYWSWIRQPPGKGLEWIGEIDHSGSTNYNPSLKSRVTISVDTSKNQFSLKLSSVTAADTAVYYCARARGPWSFDPWGQGTLVTVSS
NKG2D-binding arm, light chain variable domain: DIQMTQSPSTLSASVGDRVTITCRASQSISSWLAWYQQKPGKAPKLLIYKASSLESGVPSRFSGSGSGTEFTLTISSLQPDDFATYYCQQYGSFPITFGGGTKVEIK
CD33-binding arm, heavy chain variable domain: EVQLVESGGGLVQPGGSLRLSCAASGFTFSSYGMSWVRQAPGKGLEWVANIKQDGSEKYYVDSVKGRFTISRDNAKNSLYLQMNSLRAEDTAVYYCAREGGPYYDSSGYFVYYGMDVWGQGTTVTVSS
CD33-binding arm, light chain variable domain: DIQMTQSPSTLSASVGDRVTITCRASQSISSWLAWYQQKPGKAPKLLIYDASSLESGVPSRFSGSGSGTEFTLTISSLQPDDFATYYCQQYESFPTFGGGTKVEIK
B7: C26.H76 (bispecific antibody)
NKG2D-binding arm, heavy chain variable domain: QVQLQQWGAGLLKPSETLSLTCAVYGGSFSGYYWSWIRQPPGKGLEWIGEIDHSGSTNYNPSLKSRVTISVDTSKNQFSLKLSSVTAADTAVYYCARARGPWSFDPWGQGTLVTVSS
NKG2D-binding arm, light chain variable domain: DIQMTQSPSTLSASVGDRVTITCRASQSISSWLAWYQQKPGKAPKLLIYKASSLESGVPSRFSGSGSGTEFTLTISSLQPDDFATYYCQQYGSFPITFGGGTKVEIK
CD33-binding arm, heavy chain variable domain: EVQLLESGGGLVQPGGSLRLSCAASGFTFSKYTMSWVRQAPGKGLEWVSAIVGSGESTYFADSVKGRFTISRDNSKNTLYLQMNSLRAEDTAVYYCAREGGPYYDSSGYFVYYGMDVWGQGTTVTVSS
CD33-binding arm, light chain variable domain: DIQMTQSPSTLSASVGDRVTITCRASQSISSWLAWYQQKPGKAPKLLIYKASSLESGVPSRFSGSGSGTEFTLTISSLQPDDFATYYCQQYDDLPTFGGGTKVEIK
B8: C26.I07 (bispecific antibody)
NKG2D-binding arm, heavy chain variable domain: QVQLQQWGAGLLKPSETLSLTCAVYGGSFSGYYWSWIRQPPGKGLEWIGEIDHSGSTNYNPSLKSRVTISVDTSKNQFSLKLSSVTAADTAVYYCARARGPWSFDPWGQGTLVTVSS
NKG2D-binding arm, light chain variable domain: DIQMTQSPSTLSASVGDRVTITCRASQSISSWLAWYQQKPGKAPKLLIYKASSLESGVPSRFSGSGSGTEFTLTISSLQPDDFATYYCQQYGSFPITFGGGTKVEIK
CD33-binding arm, heavy chain variable domain: EVQLVESGGGLVQPGGSLRLSCAASGFTFGSYWMSWVRQAPGKGLEWVATIKQDGSEKSYVDSVKGRFTISRDNAKNSLYLQMNSLRAEDTAVYYCARPLNAGELDVWGQGTMVTVSS
CD33-binding arm, light chain variable domain: DIQMTQSPSTLSASVGDRVTITCRASQSISSWLAWYQQKPGKAPKLLIYEASSLESGVPSRFSGSGSGTEFTLTISSLQPDDFATYYCQQSQSYPPITFGGGTKVEIK
B9: F47.G59 (bispecific antibody)
NKG2D-binding arm, heavy chain variable domain: QVQLQQWGAGLLKPSETLSLTCAVYGGSFSGYYWSWIRQPPGKGLEWIGEIDHSGSTNYNPSLKSRVTISVDTSKNQFSLKLSSVTAADTAVYYCARARGPWSFDPWGQGTLVTVSS
NKG2D-binding arm, light chain variable domain: DIQMTQSPSTLSASVGDRVTITCRASQSISSWLAWYQQKPGKAPKLLIYKASSLESGVPSRFSGSGSGTEFTLTISSLQPDDFATYYCQQYDTFITFGGGTKVEIK
CD33-binding arm, heavy chain variable domain: EVQLVESGGGLVQPGGSLRLSCAASGFTFSSYGMSWVRQAPGKGLEWVANIKQDGSEKYYVDSVKGRFTISRDNAKNSLYLQMNSLRAEDTAVYYCAREGGPYYDSSGYFVYYGMDVWGQGTTVTVSS
CD33-binding arm, light chain variable domain: DIQMTQSPSTLSASVGDRVTITCRASQSISSWLAWYQQKPGKAPKLLIYDASSLESGVPSRFSGSGSGTEFTLTISSLQPDDFATYYCQQYESFPTFGGGTKVEIK
B10: F47.H76 (bispecific antibody)
NKG2D-binding arm, heavy chain variable domain: QVQLQQWGAGLLKPSETLSLTCAVYGGSFSGYYWSWIRQPPGKGLEWIGEIDHSGSTNYNPSLKSRVTISVDTSKNQFSLKLSSVTAADTAVYYCARARGPWSFDPWGQGTLVTVSS
NKG2D-binding arm, light chain variable domain: DIQMTQSPSTLSASVGDRVTITCRASQSISSWLAWYQQKPGKAPKLLIYKASSLESGVPSRFSGSGSGTEFTLTISSLQPDDFATYYCQQYDTFITFGGGTKVEIK
CD33-binding arm, heavy chain variable domain: EVQLLESGGGLVQPGGSLRLSCAASGFTFSKYTMSWVRQAPGKGLEWVSAIVGSGESTYFADSVKGRFTISRDNSKNTLYLQMNSLRAEDTAVYYCAREGGPYYDSSGYFVYYGMDVWGQGTTVTVSS
CD33-binding arm, light chain variable domain: DIQMTQSPSTLSASVGDRVTITCRASQSISSWLAWYQQKPGKAPKLLIYKASSLESGVPSRFSGSGSGTEFTLTISSLQPDDFATYYCQQYDDLPTFGGGTKVEIK
B11: F47.I07 (bispecific antibody)
NKG2D-binding arm, heavy chain variable domain: QVQLQQWGAGLLKPSETLSLTCAVYGGSFSGYYWSWIRQPPGKGLEWIGEIDHSGSTNYNPSLKSRVTISVDTSKNQFSLKLSSVTAADTAVYYCARARGPWSFDPWGQGTLVTVSS
NKG2D-binding arm, light chain variable domain: DIQMTQSPSTLSASVGDRVTITCRASQSISSWLAWYQQKPGKAPKLLIYKASSLESGVPSRFSGSGSGTEFTLTISSLQPDDFATYYCQQYDTFITFGGGTKVEIK
CD33-binding arm, heavy chain variable domain: EVQLVESGGGLVQPGGSLRLSCAASGFTFGSYWMSWVRQAPGKGLEWVATIKQDGSEKSYVDSVKGRFTISRDNAKNSLYLQMNSLRAEDTAVYYCARPLNAGELDVWGQGTMVTVSS
CD33-binding arm, light chain variable domain: DIQMTQSPSTLSASVGDRVTITCRASQSISSWLAWYQQKPGKAPKLLIYEASSLESGVPSRFSGSGSGTEFTLTISSLQPDDFATYYCQQSQSYPPITFGGGTKVEIK
B12: A40.G59 (bispecific antibody)
NKG2D-binding arm, heavy chain variable domain: QVQLQQWGAGLLKPSETLSLTCAVYGGSFSGYYWSWIRQPPGKGLEWIGEIDHSGSTNYNPSLKSRVTISVDTSKNQFSLKLSSVTAADTAVYYCARARGPWSFDPWGQGTLVTVSS
NKG2D-binding arm, light chain variable domain: DIQMTQSPSTLSASVGDRVTITCRASQSIGSWLAWYQQKPGKAPKLLIYKASSLESGVPSRFSGSGSGTEFTLTISSLQPDDFATYYCQQYHSFYTFGGGTKVEIK
CD33-binding arm, heavy chain variable domain: EVQLVESGGGLVQPGGSLRLSCAASGFTFSSYGMSWVRQAPGKGLEWVANIKQDGSEKYYVDSVKGRFTISRDNAKNSLYLQMNSLRAEDTAVYYCAREGGPYYDSSGYFVYYGMDVWGQGTTVTVSS
CD33-binding arm, light chain variable domain: DIQMTQSPSTLSASVGDRVTITCRASQSISSWLAWYQQKPGKAPKLLIYDASSLESGVPSRFSGSGSGTEFTLTISSLQPDDFATYYCQQYESFPTFGGGTKVEIK
B13: A40.H76 (bispecific antibody)
NKG2D-binding arm, heavy chain variable domain: QVQLQQWGAGLLKPSETLSLTCAVYGGSFSGYYWSWIRQPPGKGLEWIGEIDHSGSTNYNPSLKSRVTISVDTSKNQFSLKLSSVTAADTAVYYCARARGPWSFDPWGQGTLVTVSS
NKG2D-binding arm, light chain variable domain: DIQMTQSPSTLSASVGDRVTITCRASQSIGSWLAWYQQKPGKAPKLLIYKASSLESGVPSRFSGSGSGTEFTLTISSLQPDDFATYYCQQYHSFYTFGGGTKVEIK
CD33-binding arm, heavy chain variable domain: EVQLLESGGGLVQPGGSLRLSCAASGFTFSKYTMSWVRQAPGKGLEWVSAIVGSGESTYFADSVKGRFTISRDNSKNTLYLQMNSLRAEDTAVYYCAREGGPYYDSSGYFVYYGMDVWGQGTTVTVSS
CD33-binding arm, light chain variable domain: DIQMTQSPSTLSASVGDRVTITCRASQSISSWLAWYQQKPGKAPKLLIYKASSLESGVPSRFSGSGSGTEFTLTISSLQPDDFATYYCQQYDDLPTFGGGTKVEIK

Amino acid sequences for entries named in this document (tags omitted). A change or cut given only in a name is not applied to a line headed by its entry.
UniProt P20138: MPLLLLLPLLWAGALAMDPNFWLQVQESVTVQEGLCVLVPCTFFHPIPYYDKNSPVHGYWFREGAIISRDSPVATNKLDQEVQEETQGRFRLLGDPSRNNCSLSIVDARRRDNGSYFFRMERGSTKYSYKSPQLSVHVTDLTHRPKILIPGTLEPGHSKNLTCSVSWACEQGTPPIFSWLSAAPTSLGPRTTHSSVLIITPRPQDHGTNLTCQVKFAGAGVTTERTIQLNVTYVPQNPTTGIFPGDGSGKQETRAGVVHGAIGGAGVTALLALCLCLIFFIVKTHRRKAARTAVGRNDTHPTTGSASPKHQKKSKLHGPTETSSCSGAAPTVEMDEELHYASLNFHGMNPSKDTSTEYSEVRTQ

Each binder was assayed against V domain of human CD33 (human) (UniProt P20138) (assay: SPR, Fab captured, 37 C).

binding, binds:
B1

Each binder was assayed against human CD33 expressed on cells (human) (UniProt P20138) (assay: flow cytometry on Molm-13 cells, fluorophore-conjugated anti-human IgG secondary, MFI as fold over background (FOB)).

binding, binds:
B2
B3
B4
B5
B6
B7
B8
B9
B10
B11
B12
B13
